From the supplement of paper PMC10849652
This is one part of the list.

The chains behind the UniProt entries cited, without tags or fusion partners. Where a name states a change or a piece, a line headed by the entry shows the natural chain unless it says otherwise.
UniProt Q13733, whole entry, looked up: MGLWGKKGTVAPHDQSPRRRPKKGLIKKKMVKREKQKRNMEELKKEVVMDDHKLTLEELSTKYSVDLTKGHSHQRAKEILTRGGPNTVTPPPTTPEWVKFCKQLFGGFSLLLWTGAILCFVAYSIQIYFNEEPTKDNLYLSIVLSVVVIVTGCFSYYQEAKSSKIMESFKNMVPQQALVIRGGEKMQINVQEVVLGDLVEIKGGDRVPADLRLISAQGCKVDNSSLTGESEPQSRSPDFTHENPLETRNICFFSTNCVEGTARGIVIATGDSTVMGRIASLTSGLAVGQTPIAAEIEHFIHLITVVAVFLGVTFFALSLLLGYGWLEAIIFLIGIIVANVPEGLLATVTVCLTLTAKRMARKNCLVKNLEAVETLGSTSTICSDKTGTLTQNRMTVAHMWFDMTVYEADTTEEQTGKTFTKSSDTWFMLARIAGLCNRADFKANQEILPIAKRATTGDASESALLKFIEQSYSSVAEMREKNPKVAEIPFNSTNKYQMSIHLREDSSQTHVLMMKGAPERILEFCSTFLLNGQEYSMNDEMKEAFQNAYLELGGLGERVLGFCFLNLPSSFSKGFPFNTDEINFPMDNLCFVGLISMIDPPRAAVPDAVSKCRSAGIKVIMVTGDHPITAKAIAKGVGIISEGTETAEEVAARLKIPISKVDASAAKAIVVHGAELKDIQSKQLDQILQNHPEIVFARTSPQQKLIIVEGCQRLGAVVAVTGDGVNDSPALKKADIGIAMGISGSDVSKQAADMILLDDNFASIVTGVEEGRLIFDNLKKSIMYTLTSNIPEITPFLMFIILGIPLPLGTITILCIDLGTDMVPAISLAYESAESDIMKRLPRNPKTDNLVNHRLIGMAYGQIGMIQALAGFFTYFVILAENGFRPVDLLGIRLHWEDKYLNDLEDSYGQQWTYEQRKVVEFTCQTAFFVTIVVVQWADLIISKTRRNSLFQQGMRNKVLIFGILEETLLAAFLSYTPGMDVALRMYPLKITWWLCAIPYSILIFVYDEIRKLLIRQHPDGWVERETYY
UniProt P25705: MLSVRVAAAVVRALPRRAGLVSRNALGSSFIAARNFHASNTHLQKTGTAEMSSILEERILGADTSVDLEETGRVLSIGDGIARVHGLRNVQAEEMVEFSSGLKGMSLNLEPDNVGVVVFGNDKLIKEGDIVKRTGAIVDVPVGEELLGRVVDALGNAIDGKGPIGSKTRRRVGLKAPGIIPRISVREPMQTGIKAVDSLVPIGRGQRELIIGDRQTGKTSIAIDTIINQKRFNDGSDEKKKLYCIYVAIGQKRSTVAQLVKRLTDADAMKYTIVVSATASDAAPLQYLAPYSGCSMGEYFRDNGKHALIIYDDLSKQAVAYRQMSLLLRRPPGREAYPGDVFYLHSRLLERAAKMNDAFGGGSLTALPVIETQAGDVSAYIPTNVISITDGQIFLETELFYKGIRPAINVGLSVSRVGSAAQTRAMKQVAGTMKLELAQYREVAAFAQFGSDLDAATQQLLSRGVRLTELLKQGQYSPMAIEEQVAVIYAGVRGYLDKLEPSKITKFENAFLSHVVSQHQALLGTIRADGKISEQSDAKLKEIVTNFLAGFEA
UniProt Q9NQS1: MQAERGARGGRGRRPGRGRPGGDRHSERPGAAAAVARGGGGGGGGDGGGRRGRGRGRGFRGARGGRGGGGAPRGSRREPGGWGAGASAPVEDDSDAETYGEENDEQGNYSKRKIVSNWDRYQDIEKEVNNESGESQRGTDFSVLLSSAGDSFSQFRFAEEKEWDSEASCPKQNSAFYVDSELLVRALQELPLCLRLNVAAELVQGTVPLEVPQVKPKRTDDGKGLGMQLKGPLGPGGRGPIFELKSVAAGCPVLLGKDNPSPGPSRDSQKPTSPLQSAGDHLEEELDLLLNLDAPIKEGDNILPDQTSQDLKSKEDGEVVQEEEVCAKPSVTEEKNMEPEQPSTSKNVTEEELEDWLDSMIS
UniProt O15169, whole entry, looked up: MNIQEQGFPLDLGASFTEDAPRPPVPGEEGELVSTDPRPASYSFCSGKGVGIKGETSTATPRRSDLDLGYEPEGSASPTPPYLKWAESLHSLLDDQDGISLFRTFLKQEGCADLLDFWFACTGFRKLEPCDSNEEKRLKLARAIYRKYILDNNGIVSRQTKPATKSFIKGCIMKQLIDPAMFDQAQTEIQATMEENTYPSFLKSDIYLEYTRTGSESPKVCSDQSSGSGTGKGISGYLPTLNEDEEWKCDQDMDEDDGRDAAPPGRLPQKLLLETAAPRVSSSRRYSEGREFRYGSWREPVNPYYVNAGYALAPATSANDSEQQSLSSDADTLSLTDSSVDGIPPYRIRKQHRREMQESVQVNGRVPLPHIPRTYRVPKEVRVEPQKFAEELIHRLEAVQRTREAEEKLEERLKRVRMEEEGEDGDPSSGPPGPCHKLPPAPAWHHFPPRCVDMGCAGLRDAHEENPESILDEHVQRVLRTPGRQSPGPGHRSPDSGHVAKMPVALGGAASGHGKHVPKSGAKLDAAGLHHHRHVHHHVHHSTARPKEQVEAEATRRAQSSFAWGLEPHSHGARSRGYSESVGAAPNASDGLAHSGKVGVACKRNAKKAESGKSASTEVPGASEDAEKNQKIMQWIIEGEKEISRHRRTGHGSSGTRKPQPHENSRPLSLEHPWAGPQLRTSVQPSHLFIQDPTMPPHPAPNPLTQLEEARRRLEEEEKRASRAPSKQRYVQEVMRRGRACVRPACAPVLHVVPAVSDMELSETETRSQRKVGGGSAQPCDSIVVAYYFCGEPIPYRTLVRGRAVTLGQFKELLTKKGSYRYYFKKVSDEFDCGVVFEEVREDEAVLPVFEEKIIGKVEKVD
UniProt Q13825: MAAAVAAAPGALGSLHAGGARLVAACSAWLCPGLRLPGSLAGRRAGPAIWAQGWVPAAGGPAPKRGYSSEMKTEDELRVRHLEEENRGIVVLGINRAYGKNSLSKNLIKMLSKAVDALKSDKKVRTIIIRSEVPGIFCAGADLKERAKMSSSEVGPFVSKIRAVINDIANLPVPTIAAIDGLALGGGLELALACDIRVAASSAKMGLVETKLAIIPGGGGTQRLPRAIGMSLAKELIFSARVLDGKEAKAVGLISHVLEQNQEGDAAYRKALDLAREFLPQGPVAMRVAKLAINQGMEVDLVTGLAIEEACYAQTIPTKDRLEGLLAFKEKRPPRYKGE
UniProt P31939: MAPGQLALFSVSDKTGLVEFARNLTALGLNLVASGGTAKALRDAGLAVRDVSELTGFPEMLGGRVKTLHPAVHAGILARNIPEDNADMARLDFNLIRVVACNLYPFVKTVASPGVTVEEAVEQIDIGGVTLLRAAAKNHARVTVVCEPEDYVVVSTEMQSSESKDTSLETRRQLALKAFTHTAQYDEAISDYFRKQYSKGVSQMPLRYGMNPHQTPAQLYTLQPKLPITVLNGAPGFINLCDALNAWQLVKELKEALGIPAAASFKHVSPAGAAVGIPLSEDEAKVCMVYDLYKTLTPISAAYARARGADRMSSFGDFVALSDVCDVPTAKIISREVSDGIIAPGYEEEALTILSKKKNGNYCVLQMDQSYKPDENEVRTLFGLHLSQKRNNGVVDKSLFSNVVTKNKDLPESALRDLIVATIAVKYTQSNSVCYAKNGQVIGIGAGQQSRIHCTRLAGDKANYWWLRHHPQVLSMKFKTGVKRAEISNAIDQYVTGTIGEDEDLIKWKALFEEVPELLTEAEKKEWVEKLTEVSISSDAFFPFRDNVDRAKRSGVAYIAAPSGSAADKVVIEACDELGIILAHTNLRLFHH
UniProt Q9H1Y0: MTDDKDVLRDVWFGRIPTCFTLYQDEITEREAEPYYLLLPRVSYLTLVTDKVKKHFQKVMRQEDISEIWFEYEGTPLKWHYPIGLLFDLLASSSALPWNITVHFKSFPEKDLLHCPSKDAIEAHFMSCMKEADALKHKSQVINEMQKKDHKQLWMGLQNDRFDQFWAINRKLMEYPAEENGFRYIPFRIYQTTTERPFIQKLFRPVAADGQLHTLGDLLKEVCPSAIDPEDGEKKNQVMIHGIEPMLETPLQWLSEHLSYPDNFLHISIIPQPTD
UniProt P56385: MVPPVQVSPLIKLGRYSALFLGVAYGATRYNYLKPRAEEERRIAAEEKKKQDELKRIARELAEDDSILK

Columns and labels:
Test in all cases: log2 fold change, soluble protein after heating vs DMSO (PISA); higher = thermal stabilisation; K562 lysate, 10 uM; active = over 0.2 and 3.5 SD of the protein, either way, in both replicates (recomputed)
[1] = compound: C1=CC=C(C=C1)[C@H](COC2=CC3=C(C=C2)NC(=O)N3)NC(=O)C4=CC=CN(C4=O)CC5=CC(=C(C=C5)F)F
Outline: (§1)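 Soluble protein was defined as the supernatant remaining after 21,000xg for 90 min, following pooling of heated aliquots and adjustment to 0.5% NP-40 at 4°C. Before that, crude K562 extract at 1 mg/mL protein in PBS pH 7.4 with 1 mM MgCl2 was treated with 10 μM compound for 30 min and heated for 3 min across 48°C-58°C. Quantification used TMTpro 16plex LC-MS/MS with channel sums equalised, and values are log-two fold changes in thermal stability relative to solvent controls from duplicates.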

[2] = compound: CC1=C(SC2=C1C(=N[C@H](C3=NN=C(N32)C)CC(=O)N)C4=CC=C(C=C4)Cl)C
Outline: as §1

[3] = compound: CC1=C2C(=CC=C1)N=C(N(C2=O)C3=CC=CC=C3C)CN4C=NC5=C(N=CN=C54)N
Outline: as §1

[4] = compound: Cc1sc2c(c1C)C(c1ccc(Cl)cc1)=N[C@@H](CC(=O)OC(C)(C)C)c1nnc(C)n1-2
Outline: as §1

[5] = compound: c1ccc([C@@H]2C[C@H]2NC2CCNCC2)cc1
Outline: as §1

Measured: log2 fold change

ATP1A4 (UniProt Q13733)
inactive: [1] 0.035 | [2] 0.009 | [3] 0.017 | [4] -0.023 | [5] -0.03

ATP5F1A (UniProt P25705)
inactive: [1] 0.013 | [2] 0.002 | [3] -0.006 | [4] -0.06 | [5] 0.01

AVEN (UniProt Q9NQS1)
inactive: [1] 0.205 | [2] 0.025 | [3] 0.003 | [4] 0.013 | [5] -0.058

AXIN1 (UniProt O15169)
inactive: [1] -0.108 | [2] 0.074 | [3] 0.005 | [4] -0.046 | [5] -0.05

Reprinted at random: two entries already listed, in no set order.
AVEN (UniProt Q9NQS1)
inactive: [1] 0.205 | [2] 0.025 | [3] 0.003 | [4] 0.013 | [5] -0.058

ATP5F1A (UniProt P25705)
inactive: [1] 0.013 | [2] 0.002 | [3] -0.006 | [4] -0.06 | [5] 0.01

The list continues:

AUH (UniProt Q13825)
inactive: [1] 0.034 | [2] 0 | [3] 0.129 | [4] -0.112 | [5] -0.009

ATIC (UniProt P31939)
inactive: [1] 0.001 | [2] 0.022 | [3] 0 | [4] 0.052 | [5] 0.014

ATG5 (UniProt Q9H1Y0)
inactive: [1] 0.051 | [2] -0.024 | [3] -0.002 | [4] -0.028 | [5] -0.007

ATP5ME (UniProt P56385)
inactive: [1] 0.028 | [2] -0.012 | [3] 0.004 | [4] -0.019 | [5] -0.054
